Values of other authors as cited in patent publication US20030013675A1 (Boehringer Ingelheim Pharma KG, priority 2001, published 2003).
For at least one compound, name, drawing or mass did not settle the structure.

System: inflammatory response

Question: Which “inflammatory response in two in vivo models of inflammation” value does the source give for `Nc1nc(N/N=C/C2CCCCC2)nc2c1ncn2C1O[C@H](CO)[C@@H](O)[C@H]1O` (stereo partly shown) [WRC-0470, 2-cyclohexyl-methylidene-hydrazino-adenosine] here?
Answer: decreases the inflammatory response
